Measurements published in PMC7073147.
Results are given in words; binding and its absence hold for the method and conditions named. Binding seen in cells or lysates may run through a third protein. Some results given as binding are weak or reduced against the parent protein; the word gives no strength. Where a sequence is shown, tags or fusion partners need not be part of it.

By UniProt entry, the sequences of proteins in these tests, tags left out.
UniProt P33242: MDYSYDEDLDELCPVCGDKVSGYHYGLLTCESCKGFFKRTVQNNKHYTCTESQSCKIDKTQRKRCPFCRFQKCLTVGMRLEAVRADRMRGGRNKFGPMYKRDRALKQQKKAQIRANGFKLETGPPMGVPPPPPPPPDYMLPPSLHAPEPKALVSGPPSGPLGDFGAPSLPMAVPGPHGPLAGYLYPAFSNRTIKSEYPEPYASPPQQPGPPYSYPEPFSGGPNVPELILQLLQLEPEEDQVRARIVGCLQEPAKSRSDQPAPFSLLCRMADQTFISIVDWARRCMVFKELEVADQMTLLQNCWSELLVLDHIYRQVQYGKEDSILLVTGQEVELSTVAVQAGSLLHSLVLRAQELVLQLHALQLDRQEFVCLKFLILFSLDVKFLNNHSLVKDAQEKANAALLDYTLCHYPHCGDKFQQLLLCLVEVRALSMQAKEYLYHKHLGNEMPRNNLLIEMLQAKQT
UniProt Q13285: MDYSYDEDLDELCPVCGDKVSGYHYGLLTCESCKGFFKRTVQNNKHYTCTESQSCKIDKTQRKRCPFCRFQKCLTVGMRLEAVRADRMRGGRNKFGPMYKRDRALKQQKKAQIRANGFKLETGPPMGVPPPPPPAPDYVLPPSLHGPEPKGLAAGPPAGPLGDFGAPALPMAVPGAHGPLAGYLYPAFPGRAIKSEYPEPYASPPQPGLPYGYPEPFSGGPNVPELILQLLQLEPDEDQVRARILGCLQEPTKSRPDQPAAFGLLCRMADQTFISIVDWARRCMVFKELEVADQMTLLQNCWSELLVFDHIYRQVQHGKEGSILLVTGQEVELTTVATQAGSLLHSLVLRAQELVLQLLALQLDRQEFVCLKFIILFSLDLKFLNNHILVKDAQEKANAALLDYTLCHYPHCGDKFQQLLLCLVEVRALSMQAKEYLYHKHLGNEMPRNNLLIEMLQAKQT

Molecular target: T1, HIS-FLAG-tagged ATF3 (activating transcription factor 3) (UniProt P18847)
T1 sequence: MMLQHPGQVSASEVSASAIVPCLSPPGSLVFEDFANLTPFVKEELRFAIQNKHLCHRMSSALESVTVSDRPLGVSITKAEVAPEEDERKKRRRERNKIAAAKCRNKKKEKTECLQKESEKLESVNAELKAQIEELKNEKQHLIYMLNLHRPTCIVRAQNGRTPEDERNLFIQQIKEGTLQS
Experiment: pull-down; Ni2+-NTA agarose precipitates HIS-FLAG-tagged ATF3 from lysates of transfected H1299 or Y1 cells 48 h after transfection; Sabatini lysis buffer (40 mM HEPES, 120 mM NaCl, 1% Triton X-100, 1 mM EDTA); anti-ATF3 and anti-NR5A1 immunoblotting (the legend says immunoprecipitated by anti-HIS antibody)

Substance	binding
endogenous NR5A1 of Y1 cells (from UniProt P33242 1-462)	binds
HA-tagged NR5A1 (steroidogenic factor 1), wild-type (from UniProt Q13285 1-461)	binds
